Test results: paper PMC6730887, “FKBP51 and FKBP12.6—Novel and tight interactors of Glomulin” (PLoS ONE, 2019)
Residue numbers refer to the chain shown, from its start. In names and notes the source's numbering stands. Results are given in words; binding and its absence hold for the method and conditions named. Some entries that bind do so weakly or less than the wild type. Sequences can lack the tags named with a protein.

T1: His-FKBP51FK1-MonoCys (aa1-140, C103A, C107I, E140C) labelled with Fluorescein-5-Maleimide (UniProt Q13451)
T1 sequence (chain, Fluorescein-5-Maleimide on the single C-terminal cysteine (E140C)): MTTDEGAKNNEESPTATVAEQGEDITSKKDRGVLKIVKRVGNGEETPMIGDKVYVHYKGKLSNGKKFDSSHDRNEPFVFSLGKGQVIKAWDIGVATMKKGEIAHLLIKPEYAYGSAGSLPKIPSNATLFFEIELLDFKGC

T2: GST-Glmn (Glomulin) (UniProt Q92990)
T2 sequence: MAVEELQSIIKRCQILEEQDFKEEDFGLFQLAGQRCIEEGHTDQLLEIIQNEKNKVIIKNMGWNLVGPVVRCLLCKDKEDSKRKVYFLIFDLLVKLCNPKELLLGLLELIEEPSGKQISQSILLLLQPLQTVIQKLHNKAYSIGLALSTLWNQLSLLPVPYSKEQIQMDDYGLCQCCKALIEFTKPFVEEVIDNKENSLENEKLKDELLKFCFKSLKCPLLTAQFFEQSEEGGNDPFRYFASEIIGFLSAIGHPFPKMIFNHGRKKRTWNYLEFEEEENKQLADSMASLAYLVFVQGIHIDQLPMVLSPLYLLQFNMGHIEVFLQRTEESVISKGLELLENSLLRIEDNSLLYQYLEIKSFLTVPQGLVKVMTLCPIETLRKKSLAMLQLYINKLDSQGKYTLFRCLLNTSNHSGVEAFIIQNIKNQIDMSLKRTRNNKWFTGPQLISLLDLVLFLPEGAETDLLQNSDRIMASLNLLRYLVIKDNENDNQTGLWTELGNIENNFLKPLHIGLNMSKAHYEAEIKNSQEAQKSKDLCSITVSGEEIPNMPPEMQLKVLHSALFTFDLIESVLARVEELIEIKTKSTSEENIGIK

B1: GST-Glmn (Glomulin) (protein, UniProt Q92990 1-594)
chain: T2 sequence
B2: His-FKBP51FK1 (F67V) (domain or fragment)
chain: T1 sequence (chain, Fluorescein-5-Maleimide on the single C-terminal cysteine (E140C)) with F67V, A103C, I107C, C140E

Key:
[1] = target: T1, His-FKBP51FK1-MonoCys (aa1-140, C103A, C107I, E140C) labelled with Fluorescein-5-Maleimide; assay: AlphaScreen or HTRF; direct HTRF: GST-Glmn titrated to 30 nM Fluorescein-labelled FKBP in the presence of 0.8 nM Anti GST-Tb cryptate; Ex 485 nm, Em 520 / 620 nm; both purified
[2] = target: His-FKBP12-MonoCys (C23V / E108C) labelled with Fluorescein-5-Maleimide (UniProt P62942); assay: as above
[3] = target: T1, His-FKBP51FK1-MonoCys (aa1-140, C103A, C107I, E140C) labelled with Fluorescein-5-Maleimide; assay: AlphaScreen or HTRF; competitive HTRF: unlabelled FKBP titrated against 30 nM FKBP51FK1-5-MF and 30 nM GST-Glmn with Anti GST-Tb cryptate; 20 mM HEPES, 5% glycerol, 20 mM NaCl, 10 mM DTT, pH 8.0; room temperature, 1 h; both purified
[4] = target: T2, GST-Glmn (Glomulin); assay: as above

Binder	binding [1]	binding [2]	binding [3]	binding [4]
B1	binds	no binding	binds	
B2				binds
